Reference: PubChem BioAssay AID292 (DTP/NCI, 2004)
The list does not hold the whole screen: it is rich in T/C values a quarter to a half above the control, in often repeated tests (any T/C) and in doses without a T/C. Further doses and runs are listed elsewhere. T/C gives the treated animals as a percentage of the vehicle group. Some entries give survivors of the animals treated and no T/C: the source holds a T/C of zero for them, seemingly a mark for toxic or unscored doses. Some doses without a T/C left all or most animals alive at the check, yet need not have been tolerated: survival well below the control is almost never listed, so the zero probably covers shortened survival too. Counts of survivors are from the toxicity check (mostly the fifth day) where no day follows; animals may have died later. Schedules are NCI's codes, taken here to give the interval after Q, in days (D) or hours (H), and the number of doses after X. Some molecules as drawn cover several salts, stereoisomers or complexes of the source; a dose is that of the sample tested. Some entries hold several experiments; the values are given in rising order. Where survival is the endpoint, this PubChem deposit counts one and a half times the control or more as active, and values a quarter to a half above the control carry no call in these data; other NCI protocols may use other cut-offs. Some T/C values are followed by the survivors on the day toxicity was checked, most often the fifth; where none is given, no animal had died by that day.

System: B6C3F1 mice, ip Sarcoma M5076, median survival T/C
Experiment: NCI In Vivo Anticancer Drug Screen. Data for tumor model Sarcoma M5076 (intraperitoneal) in B6C3F1 mice
Conditions: T/C endpoint: median survival time, higher T/C = longer survival
Method in brief: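 Antitumour effect is judged in tumour-bearing mice by comparing survival after compound dosing against vehicle-only animals, reported as T/C.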

[1] = dose: 200.0 mg/kg/injection, schedule: Q04DX004 (ip), vehicle: saline with Tween-80
[2] = dose: 400.0 mg/kg/injection, schedule: Q04DX004 (ip), vehicle: Klucel (hydroxypropylcellulose) (HPC)
[3] = dose: 800.0 mg/kg/injection, schedule: Q04DX004 (ip), vehicle: Klucel (hydroxypropylcellulose) (HPC)
[4] = dose: 200.0 mg/kg/injection, schedule: Q04DX004 (ip), vehicle: Klucel (hydroxypropylcellulose) (HPC)
[5] = dose: 100.0 mg/kg/injection, schedule: Q04DX004 (ip), vehicle: saline with Tween-80
[6] = dose: 400.0 mg/kg/injection, schedule: Q04DX004 (ip), vehicle: saline with Tween-80

**Q.** Which results are given for `c1nnc(NCNc2nncs2)s1`?
**A.** T/C (dose: 86.0 mg/kg/injection, schedule: Q04DX003 (ip), vehicle: suspension in saline): 131 % of control [9 of 10 alive on day 14]; T/C (dose: 86.0 mg/kg/injection, schedule: Q04DX004 (ip), vehicle: suspension in saline): 148 % of control; T/C (dose: 100.0 mg/kg/injection, schedule: Q04DX004 (ip), vehicle: suspension in saline): 127 % of control; T/C (dose: 144.0 mg/kg/injection, schedule: Q04DX003 (ip), vehicle: suspension in saline): 143 % of control [8 of 10 alive on day 14]; T/C (dose: 240.0 mg/kg/injection, schedule: Q04DX003 (ip), vehicle: suspension in saline): 143 % of control [9 of 10 alive on day 14]; T/C (dose: 400.0 mg/kg/injection, schedule: Q04DX003 (ip), vehicle: suspension in saline): 139 % of control [8 of 10 alive on day 14]; survivor count (dose: 666.0 mg/kg/injection, schedule: Q04DX003 (ip), vehicle: suspension in saline): 6 of 10 on day 14; survivor count (dose: 666.0 mg/kg/injection, schedule: Q04DX004 (ip), vehicle: suspension in saline): 6 of 10 on day 14

**Q.** For `N=C(N)c1ccc(Nc2ccc(-c3cc4ccc(C(=N)N)cc4[nH]3)cc2)cc1`, which T/C (dose: 7.5 mg/kg/injection, schedule: Q04DX004 (ip), vehicle: Klucel (hydroxypropylcellulose) (HPC)) is on record?
**A.** 125 % of control

**Q.** What about the survivor count (dose: 15.0 mg/kg/injection, schedule: Q04DX004 (ip), vehicle: Klucel (hydroxypropylcellulose) (HPC)) of the same molecule?
**A.** 8 of 10 on day 14

**Q.** What about the survivor count (dose: 30.0 mg/kg/injection, schedule: Q04DX004 (ip), vehicle: Klucel (hydroxypropylcellulose) (HPC)) of the same molecule?
**A.** 1 of 10 on day 14

**Q.** And the survivor count (dose: 60.0 mg/kg/injection, schedule: Q04DX004 (ip), vehicle: Klucel (hydroxypropylcellulose) (HPC))?
**A.** 0 of 10 on day 14

**Q.** With `CC(C)NCC(O)CC(c1ccccc1)c1ccccc1` (stereo unspecified) as the molecule, how does the survivor count [1] read?
**A.** 0 of 10 on day 14

**Q.** For `COc1ccc(-n2c(SCC(=O)NC(=O)Nc3ccccc3)nc3c(Br)cc(Br)cc3c2=O)cc1`, which survivor count (dose: 300.0 mg/kg/injection, schedule: Q04DX004 (ip), vehicle: Klucel (hydroxypropylcellulose) (HPC)) is on record?
**A.** 8 of 10 on day 14

**Q.** How did the survivor count (dose: 4.0 mg/kg/injection, schedule: Q04DX004 (ip), vehicle: water) turn out when `O=C1c2c(O)ccc(O)c2C(=O)c2c(NCCNCCO)ccc(NCCNCCO)c21` was run?
**A.** 10 of 10 on day 14

**Q.** And the survivor count (dose: 4.0 mg/kg/injection, schedule: Q04DX005 (ip), vehicle: saline)?
**A.** 8 of 8 on day 17

**Q.** And the survivor count (dose: 8.0 mg/kg/injection, schedule: Q04DX004 (ip), vehicle: water)?
**A.** 1 of 10 on day 14

**Q.** What does the source list for `COc1ccc([N+](=O)[O-])cc1NC(=O)C1C(=O)C(=O)N(c2cc([N+](=O)[O-])ccc2OC)C1=O` (stereo unspecified)?
**A.** survivor count [2]: 6 of 10 on day 14; survivor count [3]: 1 of 10 on day 14

**Q.** For `OC(C1CO1)C(O)C1CO1` (stereo unspecified), which survivor count (dose: 16.0 mg/kg/injection, schedule: Q04DX005 (ip), vehicle: saline) is on record?
**A.** 1 of 8 on day 17

**Q.** Which results are given for `N#CC1C(=O)NC(=S)NC1c1ccc(Cl)cc1` (stereo unspecified)?
**A.** survivor count [4]: 9 of 10 on day 14; survivor count [2]: 4 of 10 on day 14; survivor count [3]: 0 of 10 on day 14

**Q.** How did the T/C (dose: 0.16 micrograms/kg/injection, schedule: Q04DX004 (ip), vehicle: saline + alcohol) turn out when `C=C(OC)C(Nc1cc(OC)c(OC)cc1C(=O)OC1CC(O[C@@H]2C(=O)C(NC(=O)OC)=C3/C(=C\CSSSC)[C@]2(O)C#C/C=C\C#C[C@@H]3OC2OC(C)C(NOC3CC(O)C(SC)C(C)O3)C(O)C2OC2CC(OC)C(NCCC)CO2)OC(C)C1O)OC` (stereo partly specified) was run?
**A.** 127 % of control

**Q.** And the T/C (dose: 0.64 micrograms/kg/injection, schedule: Q04DX004 (ip), vehicle: saline + alcohol)?
**A.** 139 % of control

**Q.** And the survivor count (dose: 2.56 micrograms/kg/injection, schedule: Q04DX004 (ip), vehicle: saline + alcohol)?
**A.** 8 of 10 on day 14

**Q.** Which T/C [5] does the source give for `NCCSC(C[N+](=O)[O-])c1ccccc1Cl` (stereo unspecified) here?
**A.** 128 % of control

**Q.** What about the survivor count [1] of the same molecule?
**A.** 0 of 10 on day 14

**Q.** How did the survivor count [6] turn out when `NC(=O)C1C=CN(Cc2ccccc2)C=C1` was run?
**A.** 0 of 10 on day 14

**Q.** What about the survivor count (dose: 800.0 mg/kg/injection, schedule: Q04DX004 (ip), vehicle: saline with Tween-80) of the same molecule?
**A.** 0 of 10 on day 14

**Q.** What does the source list for `Cn1c2ccccc2c2ccc3c(c21)C(=O)C=CC3=O`?
**A.** survivor count (dose: 100.0 mg/kg/injection, schedule: Q04DX004 (ip), vehicle: Klucel (hydroxypropylcellulose) (HPC)): 2 of 10 on day 14; survivor count [4]: 0 of 10 on day 14; survivor count [2]: 0 of 10 on day 14

**Q.** For `CCCCCCCC(=O)[O][Hg][CH2]C1COC([CH2][Hg][O]C(=O)CCCCCCC)CO1` (stereo unspecified), which survivor count (dose: 6.25 mg/kg/injection, schedule: Q04DX004 (ip), vehicle: saline with Tween-80) is on record?
**A.** 10 of 10 on day 14

**Q.** And the survivor count (dose: 12.5 mg/kg/injection, schedule: Q04DX004 (ip), vehicle: saline with Tween-80)?
**A.** 8 of 10 on day 14

**Q.** And the survivor count [5]?
**A.** 0 of 10 on day 14

**Q.** `CCOc1c2c(nn(C)c1=O)Oc1ccccc1N2CCCN1CCOCC1` was tested. Which survivor count (dose: 120.0 mg/kg/injection, schedule: Q04DX004 (ip), vehicle: saline with Tween-80) did it give?
**A.** 0 of 10 on day 14

**Q.** `C/C=C\C1OC1(C)c1cc(=O)c2c(C)cc3c(c2o1)C(=O)c1c(O)c(C2CC(C)(N(C)C)C(OC(C)=O)C(C)O2)cc(C2CC(N(C)C)C(O)C(C)O2)c1C3=O` (stereo unspecified) was tested. Which T/C (dose: 1.5 mg/kg/injection, schedule: Q04DX004 (ip), vehicle: saline + alcohol) did it give?
**A.** 143 % of control

**Q.** `Nc1ccc2ccc(N)cc2c1` was tested. Which survivor count [6] did it give?
**A.** 6 of 10 on day 14

**Q.** What does the source list for `CCc1ccccc1N1CCN(C(=O)c2cc(OC)c(OC)c(OC)c2)CC1`?
**A.** T/C [4]: 131 % of control; T/C [2]: 139 % of control

**Q.** With `C/C=C(\C)C(=O)OC1C(C)=C2C(C1OC(=O)CCCCC)C(C)(OC(C)=O)CC(OC(=O)CCC)C1(O)C2OC(=O)C1(C)O` (stereo unspecified) as the molecule, how does the survivor count (dose: 4.0 mg/kg/injection, schedule: Q04DX004 (ip), vehicle: Klucel (hydroxypropylcellulose) (HPC)) read?
**A.** 3 of 10 on day 14 and 5 of 10 on day 14

**Q.** And the survivor count (dose: 8.0 mg/kg/injection, schedule: Q04DX004 (ip), vehicle: Klucel (hydroxypropylcellulose) (HPC))?
**A.** 0 of 10 on day 14

**Q.** And the survivor count (dose: 16.0 mg/kg/injection, schedule: Q04DX004 (ip), vehicle: Klucel (hydroxypropylcellulose) (HPC))?
**A.** 0 of 10 on day 14

**Q.** Which T/C (dose: 0.13 mg/kg/injection, schedule: Q04DX004 (ip), vehicle: distilled water + alcohol) does the source give for `CC[C@@H](C)[C@@H]1NC(=O)C(NC(=O)C(CC(C)C)N(C)C(=O)C2CCCN2C(=O)C(C)O)C(C)OC(=O)C(Cc2ccc(OC)cc2)N(C)C(=O)C2CCCN2C(=O)C(CC(C)C)NC(=O)C(C)C(=O)C(C(C)C)OC(=O)C[C@H]1O` (stereo partly specified) here?
**A.** 142 % of control [9 of 10 alive on day 14]

**Q.** And the T/C (dose: 0.22 mg/kg/injection, schedule: Q04DX004 (ip), vehicle: distilled water + alcohol)?
**A.** 136 and 144 % of control

**Q.** And the T/C (dose: 0.36 mg/kg/injection, schedule: Q04DX004 (ip), vehicle: distilled water + alcohol)?
**A.** 145 % of control

**Q.** What about the T/C (dose: 0.6 mg/kg/injection, schedule: Q04DX004 (ip), vehicle: distilled water + alcohol) of the same molecule?
**A.** 136 % of control

**Q.** And the survivor count (dose: 1.0 mg/kg/injection, schedule: Q04DX004 (ip), vehicle: distilled water + alcohol)?
**A.** 0 of 10 on day 14 and 1 of 10 on day 14

**Q.** And the T/C (dose: 180.0 micrograms/kg/injection, schedule: Q04DX004 (ip), vehicle: distilled water + alcohol)?
**A.** 140 % of control

**Q.** And the T/C (dose: 360.0 micrograms/kg/injection, schedule: Q04DX004 (ip), vehicle: distilled water + alcohol)?
**A.** 149 % of control

**Q.** What about the T/C (dose: 720.0 micrograms/kg/injection, schedule: Q04DX004 (ip), vehicle: distilled water + alcohol) of the same molecule?
**A.** 140 % of control

**Q.** Which results are given for `COc1ccc(C(N)=O)cc1N=NN(C)C`?
**A.** T/C (dose: 25.0 mg/kg/injection, schedule: Q04DX004 (ip), vehicle: Klucel (hydroxypropylcellulose) (HPC)): 139 and 141 % of control; T/C (dose: 50.0 mg/kg/injection, schedule: Q04DX004 (ip), vehicle: Klucel (hydroxypropylcellulose) (HPC)): 138 [8 of 10 alive on day 14] and 149 % of control; survivor count [4]: 1 of 10 on day 14 and 2 of 10 on day 14

**Q.** For `COc1cc2c(cc1OC)-c1c3c(cc4c1[C@@H](C2)N(C)CC4)OCO3`, which survivor count (dose: 200.0 mg/kg/injection, schedule: Q04DX004 (ip), vehicle: distilled water + Tween-80) is on record?
**A.** 0 of 10 on day 14
